The record followed here is publication PMC7397750, “Angiopoietin-like protein 8 differentially regulates ANGPTL3 and ANGPTL4 during postprandial partitioning of fatty acids[S]” (Journal of Lipid Research, 2020).

The target in test [1] is T1, ANGPTL8 (angiopoietin-like protein 8), endogenous in human serum (human (endogenous in serum)) (UniProt Q6UXH0).
T1 sequence: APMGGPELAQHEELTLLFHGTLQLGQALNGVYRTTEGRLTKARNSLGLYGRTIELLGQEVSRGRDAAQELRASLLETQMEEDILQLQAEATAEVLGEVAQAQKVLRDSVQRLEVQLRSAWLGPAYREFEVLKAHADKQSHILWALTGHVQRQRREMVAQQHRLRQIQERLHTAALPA
The experiment in a line: co-IP; anti-ANGPTL8, anti-ANGPTL4 (N-terminal) and anti-ANGPTL3 antibodies covalently coupled to tosyl-activated beads; pooled human donor serum diluted 1:2 with PBS, 4°C overnight; Western blot with biotinylated anti-ANGPTL antibodies.

Test [2] concerns the target T1, ANGPTL8 (angiopoietin-like protein 8), endogenous in human serum (human (endogenous in serum)). Nature of the test: ELISA; MSD electrochemiluminescence sandwich immunoassays on human serum: ANGPTL3/8 assay with capture antibody to ANGPTL8 and detection antibody to ANGPTL3; ANGPTL4/8 assay with capture antibody to ANGPTL4 and detection antibody to ANGPTL8; assay buffer 50 mmol/l HEPES pH 7.40, 150 mmol/l NaCl, Triton X-100, EDTA, EGTA; RT. For orientation: ELISA stands for enzyme-linked immunosorbent assay.

These are yes or no findings as the source states them, for the method shown. For some assays here: Binding seen in cells or lysates may run through a third protein. Some binding calls cover weakened binding; strength is not graded here.

B1: ANGPTL4 (angiopoietin-like protein 4), endogenous in human serum, N-terminally intact (natural protein, human (endogenous in serum), UniProt Q9BY76-1 26-406, looked up)
chain: GPVQSKSPRFASWDEMNVLAHGLLQLGQGLREHAERTRSQLSALERRLSACGSACQGTEGSTDLPLAPESRVDPEVLHSLQTQLKAQNSRIQQLFHKVAQQQRHLEKQHLRIQHLQSQFGLLDHKHLDHEVAKPARRKRLPEMAQPVDPAHNVSRLHRLPRDCQELFQVGERQSGLFEIQPQGSPPFLVNCKMTSDGGWTVIQRRHDGSVDFNRPWEAYKAGFGDPHGEFWLGLEKVHSITGDRNSRLAVQLRDWDGNAELLQFSVHLGGEDTAYSLQLTAPVAGQLGATTVPPSGLSVPFSTWDQDHDLRRDKNCAKSLSGGWWFGTCSHSNLNGQYFRSIPQQRQKLKKGIFWKTWRGRYYPLQATTMLIQPMAAEAAS
notes: ANGPTL4, human, circulating protein of donor serum precipitated or captured with an N-terminal ANGPTL4 antibody; Full-length or N-terminal fragment; also called active ANGPTL4; source: endogenous, human serum
B1: the binding result in test [1] and in test [2] was “binds” in each case.
